Publication doi:10.1101/2023.07.11.548599

Chains of the proteins cited; added tags and fusions are not shown. Lines headed by an entry give the natural chain unless they say otherwise; changes in a name come on top.
UniProt A1ZBF8: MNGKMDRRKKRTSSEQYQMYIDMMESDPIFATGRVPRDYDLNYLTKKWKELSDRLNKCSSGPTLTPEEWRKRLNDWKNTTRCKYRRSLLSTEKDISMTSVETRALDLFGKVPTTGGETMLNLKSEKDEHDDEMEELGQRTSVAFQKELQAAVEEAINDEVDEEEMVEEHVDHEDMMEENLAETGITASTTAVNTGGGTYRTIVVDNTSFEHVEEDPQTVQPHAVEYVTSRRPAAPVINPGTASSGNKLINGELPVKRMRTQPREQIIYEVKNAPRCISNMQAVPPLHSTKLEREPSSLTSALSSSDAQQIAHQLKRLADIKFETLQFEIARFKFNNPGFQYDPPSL
UniProt Q9U9Q1: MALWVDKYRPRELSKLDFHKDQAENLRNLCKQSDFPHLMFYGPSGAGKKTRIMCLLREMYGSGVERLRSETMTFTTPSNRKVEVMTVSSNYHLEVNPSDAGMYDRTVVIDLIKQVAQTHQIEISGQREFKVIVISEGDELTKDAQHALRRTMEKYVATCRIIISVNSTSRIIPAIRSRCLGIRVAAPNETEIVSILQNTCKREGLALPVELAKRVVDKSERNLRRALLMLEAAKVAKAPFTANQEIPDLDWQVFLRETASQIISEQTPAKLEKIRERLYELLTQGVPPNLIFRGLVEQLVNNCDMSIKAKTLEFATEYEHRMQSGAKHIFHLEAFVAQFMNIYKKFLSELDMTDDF
UniProt P45975: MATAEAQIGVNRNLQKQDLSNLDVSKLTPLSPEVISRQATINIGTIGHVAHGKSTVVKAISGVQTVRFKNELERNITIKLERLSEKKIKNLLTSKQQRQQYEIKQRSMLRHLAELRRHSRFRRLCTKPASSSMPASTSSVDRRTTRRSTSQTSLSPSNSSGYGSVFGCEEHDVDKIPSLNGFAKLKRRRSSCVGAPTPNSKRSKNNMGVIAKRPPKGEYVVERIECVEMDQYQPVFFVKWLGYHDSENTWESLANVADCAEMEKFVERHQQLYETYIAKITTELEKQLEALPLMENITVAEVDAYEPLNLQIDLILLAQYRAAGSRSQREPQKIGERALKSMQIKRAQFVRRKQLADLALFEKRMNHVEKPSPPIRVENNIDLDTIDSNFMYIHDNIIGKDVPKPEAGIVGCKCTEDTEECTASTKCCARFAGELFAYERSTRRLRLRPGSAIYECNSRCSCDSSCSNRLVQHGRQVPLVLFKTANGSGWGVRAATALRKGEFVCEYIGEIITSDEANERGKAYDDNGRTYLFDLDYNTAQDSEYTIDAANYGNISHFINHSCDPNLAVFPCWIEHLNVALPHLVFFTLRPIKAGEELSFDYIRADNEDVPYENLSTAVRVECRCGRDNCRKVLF
UniProt Q9W3W6: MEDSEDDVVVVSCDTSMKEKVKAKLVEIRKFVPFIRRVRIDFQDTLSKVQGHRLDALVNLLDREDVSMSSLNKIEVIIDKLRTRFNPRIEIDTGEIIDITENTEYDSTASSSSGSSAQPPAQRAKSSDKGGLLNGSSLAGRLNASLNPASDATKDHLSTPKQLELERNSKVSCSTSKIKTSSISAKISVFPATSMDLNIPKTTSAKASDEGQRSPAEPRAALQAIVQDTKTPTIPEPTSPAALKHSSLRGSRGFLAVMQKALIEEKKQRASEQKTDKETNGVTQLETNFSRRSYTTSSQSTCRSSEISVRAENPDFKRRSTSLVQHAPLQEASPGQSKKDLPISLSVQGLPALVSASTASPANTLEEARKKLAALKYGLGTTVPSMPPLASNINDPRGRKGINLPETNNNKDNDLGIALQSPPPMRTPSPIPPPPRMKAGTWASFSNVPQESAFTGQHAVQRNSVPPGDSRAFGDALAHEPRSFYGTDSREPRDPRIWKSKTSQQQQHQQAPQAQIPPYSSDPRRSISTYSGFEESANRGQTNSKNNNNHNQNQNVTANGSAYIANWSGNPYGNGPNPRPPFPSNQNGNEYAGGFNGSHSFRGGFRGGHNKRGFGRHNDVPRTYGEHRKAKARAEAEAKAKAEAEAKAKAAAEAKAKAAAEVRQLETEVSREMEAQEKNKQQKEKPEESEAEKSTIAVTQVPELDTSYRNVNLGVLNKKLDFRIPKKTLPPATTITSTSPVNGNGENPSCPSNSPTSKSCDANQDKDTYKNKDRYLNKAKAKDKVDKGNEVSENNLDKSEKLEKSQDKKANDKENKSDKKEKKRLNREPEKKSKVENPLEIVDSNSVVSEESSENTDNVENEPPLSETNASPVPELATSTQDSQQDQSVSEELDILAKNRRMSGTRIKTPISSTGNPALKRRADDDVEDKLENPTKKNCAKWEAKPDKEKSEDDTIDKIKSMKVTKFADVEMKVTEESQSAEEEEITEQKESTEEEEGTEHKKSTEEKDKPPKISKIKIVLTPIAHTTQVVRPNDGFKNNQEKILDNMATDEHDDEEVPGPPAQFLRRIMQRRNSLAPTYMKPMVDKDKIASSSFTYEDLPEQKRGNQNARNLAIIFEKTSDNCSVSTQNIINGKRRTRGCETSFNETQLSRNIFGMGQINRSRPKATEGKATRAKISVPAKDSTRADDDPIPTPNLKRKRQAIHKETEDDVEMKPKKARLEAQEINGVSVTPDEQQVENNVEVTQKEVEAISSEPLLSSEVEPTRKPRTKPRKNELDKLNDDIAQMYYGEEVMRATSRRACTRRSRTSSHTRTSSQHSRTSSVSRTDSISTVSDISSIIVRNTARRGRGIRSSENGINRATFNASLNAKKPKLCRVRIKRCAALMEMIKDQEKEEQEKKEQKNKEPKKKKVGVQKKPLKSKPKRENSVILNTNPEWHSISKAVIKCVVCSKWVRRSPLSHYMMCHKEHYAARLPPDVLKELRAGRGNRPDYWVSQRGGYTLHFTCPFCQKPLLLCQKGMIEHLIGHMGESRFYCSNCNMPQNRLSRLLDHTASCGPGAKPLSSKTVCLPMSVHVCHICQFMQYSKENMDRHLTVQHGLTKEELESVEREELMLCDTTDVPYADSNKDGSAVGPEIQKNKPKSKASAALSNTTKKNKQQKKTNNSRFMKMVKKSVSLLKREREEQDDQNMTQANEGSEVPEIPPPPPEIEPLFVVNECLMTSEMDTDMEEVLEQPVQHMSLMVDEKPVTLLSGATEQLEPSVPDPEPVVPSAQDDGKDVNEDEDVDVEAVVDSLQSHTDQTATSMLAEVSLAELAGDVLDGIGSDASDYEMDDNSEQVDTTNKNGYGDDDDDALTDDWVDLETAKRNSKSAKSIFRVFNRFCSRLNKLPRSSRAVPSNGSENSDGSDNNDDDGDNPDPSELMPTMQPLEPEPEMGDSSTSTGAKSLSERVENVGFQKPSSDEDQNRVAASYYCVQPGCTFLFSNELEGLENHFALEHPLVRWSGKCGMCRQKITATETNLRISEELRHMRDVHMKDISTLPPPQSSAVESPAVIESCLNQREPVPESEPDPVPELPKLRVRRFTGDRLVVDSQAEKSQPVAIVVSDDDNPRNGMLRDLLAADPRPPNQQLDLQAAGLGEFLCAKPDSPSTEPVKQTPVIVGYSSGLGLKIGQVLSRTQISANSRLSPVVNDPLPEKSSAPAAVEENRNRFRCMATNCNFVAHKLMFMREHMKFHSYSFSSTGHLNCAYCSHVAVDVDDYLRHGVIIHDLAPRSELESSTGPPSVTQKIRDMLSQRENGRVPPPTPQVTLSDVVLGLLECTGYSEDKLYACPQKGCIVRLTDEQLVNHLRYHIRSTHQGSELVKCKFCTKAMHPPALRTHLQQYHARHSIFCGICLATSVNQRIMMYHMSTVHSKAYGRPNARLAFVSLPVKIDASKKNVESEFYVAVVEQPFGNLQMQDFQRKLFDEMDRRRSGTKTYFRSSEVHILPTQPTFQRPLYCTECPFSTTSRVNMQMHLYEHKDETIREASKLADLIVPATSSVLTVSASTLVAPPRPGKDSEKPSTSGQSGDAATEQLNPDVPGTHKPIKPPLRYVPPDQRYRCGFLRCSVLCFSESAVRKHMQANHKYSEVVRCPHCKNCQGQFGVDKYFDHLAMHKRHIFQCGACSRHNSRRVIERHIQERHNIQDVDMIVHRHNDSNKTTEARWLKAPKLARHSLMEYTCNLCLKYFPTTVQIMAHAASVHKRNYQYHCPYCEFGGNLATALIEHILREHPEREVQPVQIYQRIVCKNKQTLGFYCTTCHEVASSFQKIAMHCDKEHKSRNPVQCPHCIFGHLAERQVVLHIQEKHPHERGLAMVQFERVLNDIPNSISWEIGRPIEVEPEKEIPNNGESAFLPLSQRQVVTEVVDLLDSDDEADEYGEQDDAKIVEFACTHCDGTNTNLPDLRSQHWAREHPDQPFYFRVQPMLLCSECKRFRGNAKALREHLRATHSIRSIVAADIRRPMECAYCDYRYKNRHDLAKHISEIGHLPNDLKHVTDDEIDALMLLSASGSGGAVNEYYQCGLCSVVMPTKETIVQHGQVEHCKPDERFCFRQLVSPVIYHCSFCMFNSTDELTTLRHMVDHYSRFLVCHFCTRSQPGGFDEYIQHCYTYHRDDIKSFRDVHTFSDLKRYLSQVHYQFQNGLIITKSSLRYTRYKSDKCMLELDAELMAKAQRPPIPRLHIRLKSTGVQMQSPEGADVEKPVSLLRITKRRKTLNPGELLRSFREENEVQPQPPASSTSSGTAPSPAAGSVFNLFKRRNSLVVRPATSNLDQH

T1: GFP-D1 (D. melanogaster) (UniProt P22058)
T1 sequence: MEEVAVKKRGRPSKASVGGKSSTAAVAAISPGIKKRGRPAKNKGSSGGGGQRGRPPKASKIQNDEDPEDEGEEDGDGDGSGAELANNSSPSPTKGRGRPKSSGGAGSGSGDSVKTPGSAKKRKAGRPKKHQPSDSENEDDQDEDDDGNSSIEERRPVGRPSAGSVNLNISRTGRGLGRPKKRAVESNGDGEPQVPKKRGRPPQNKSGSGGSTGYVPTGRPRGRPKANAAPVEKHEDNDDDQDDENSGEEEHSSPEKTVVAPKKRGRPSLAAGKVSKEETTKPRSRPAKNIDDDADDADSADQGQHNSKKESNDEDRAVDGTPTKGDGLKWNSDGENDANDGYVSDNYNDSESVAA

B1: bocks (protein, UniProt Q709R6 1-399)
chain: MSDLSYLDTLGNKELLAKCLEHGLPGVPVTDSTRSVIIRRLKAKITGVPLNKSKSASKKAIPRRETVHGSQVTTPTSEPVRRTPGKSAGRTSSNNNKISEQSRRTIAYGLDNTSISGRSVQTTTTVSDMSSQSEDDDSYMVDSPVPNYSKDQQPRRYVSLAKSGVLTTSYTREVDQPLYEQEDIPRSYTYERPHVPAATLHALPTYEPRIEPSTYRPTDLGFSRPLLTQTNLNSTSYEESSTYNPKLSPISPRNTFSGSARPFGGPAPAPAPIRQRQSVPVSGSNLARGRLLQPTTAVNTLYPQLNEFYDQPNDAGEPMETESESEVEEVPINSHFQKNRFSPLARKPLVRHHDQVSPMAQFRALAVSLDQKYNLKFYLILVVSVMLATMVYVVLTPNA
B2: Mes-4 (protein, UniProt Q8MT36 1-1427)
chain: MKLSTDAHSEIEGDAAHGNVLCNSASDSLTATDEVAAGNDESVATEGDDVEIPRDTNNSTPVRLLDKPGQNPVQNGAQPAAEESELESQRQTPVQKQQQQRVSMVNRKRDLINLQSALSPKYIGYANANSPTPLSDSDDTIRTTRRRVNQAAALNNSSAGETLAHDNASPRTPGGGGGGGGDDSANQLLSKTYMSPIEKLLIKNGASSPNSTGFEAGSEDLGIRPIVRKHVKRKMKRVPKAKVTLELDEKNQQEVDEKSVKTEPIDEEVDRTDEAPTQEAQTTAISIKSETEAEHKAAVDVHIKQEDTIRLDIVNNPVESTSIVITEEPKDLEKSTEELAFALPLASSTEVDLKSPPDLSSTALATSIKSPSSVSIDSAKGLSIVTDPGWPTYQVGDLFWGKVFSYCFWPCMVCPDPLGQIVGNMPSHPQRSSLDNANVPIQVHVRFFADNGRRNWIKPENLLTFAGLKAFDDMREELRIKHGPKSAKYRQMVPKRTKVVIWRQAIEEAQAMTQIPYSDRLEKFYQTYENVVTLNRQKRKRTKYMMQDTSDVGSSLYDSTDNLHNKQGTQLLAVKRERSESPFSPAFSPVKSKNEKRAKRRKLSNGTEADTGSNSMAVTPSQTETTVDSSAYENPEFRQLLSAVMEYVMMNRSDEKVEKVLLSVVSNIWSLKQIQLRELERDLASGEIEEPLGSSVVGRGSGVGTIKRLSNRLMTMMVRRSMTPVVTPSTTPAPSEPDRRLSEPPKTKKPVNRPIEEVIEDILQLDSKYLFRGLSREPICKYCYQAGSDLVRCSRTCSSWLHADCLERKVTGAPMPKIGSRKALVIPPTSKSPSPDEDHVTADAKEVVAVGTSLVCHECNVGEPEGCVICHQVESPAVPSTPRKEDSSSHTPIEDKLLTCSQPMCGKRFHTSCCKYWPQASSSKHSARCPRHVCHTCVSDDPSGKFQQLGSSKLAKCVRCPATYHQLSKCIPAGTQMLNTTNIICPRHNIAKADAHVNVLWCYICVKGGELVCCETCPIAVHAHCRNIPIKTNESYICEECESGRLPLYGEIVWAKFNNFRWWPAIILPPTEVPSNILKKAHGENDFVVRFFGTHDHGWISRRRVYLYIEGDTGDGHKTKSQLFRNYTTGVEEASRFLPIIKARRQEQDMERQSGNKLHPPPYVKIKTNKAVPPLRFSQNLEDLSTCNCLPVDEHPCGPEAGCLNRMLFNECNPEYCKAGSLCENRMFEQRKSPRLEVVYMNERGFGLVNREPIAVGDFVIEYVGEVINHAEFQRRMEQKQRDRDENYYFLGVEKDFIIDAGPKGNLARFMNHSCEPNCETQKWTVNCIHRVGIFAIKDIPVNSELTFNYLWDDLMNNSKKACFCGAKRCSGEIGGKLKDDAVKAHAKLKQMRRAKASAVRIHVKPKKTPKVKHISADDEPMDAKDE
B3: ball (protein, UniProt Q7KRY6 1-599)
chain: MPRVAKPKAAAPAKKVVSAKKAKSKLYKMPEKVKEGTVFTDLAKGQWRIGPSIGVGGFGEIYAACKVGEKNYDAVVKCEPHGNGPLFVEMHFYLRNAKLEDIKQFMQKHGLKSLGMPYILANGSVEVNGEKHRFIVMPRYGSDLTKFLEQNGKRLPEGTVYRLAIQMLDVYQYMHSNGYVHADLKAANILLGLEKGGAAQAYLVDFGLASHFVTGDFKPDPKKMHNGTIEYTSRDAHLGVPTRRADLEILGYNLIEWLGAELPWVTQKLLAVPPKVQKAKEAFMDNIGESLKTLFPKGVPPPIGDFMKYVSKLTHNQEPDYDKCRSWFSSALKQLKIPNNGDLDFKMKPQTSSNNNLSPPGTSKAATARKAKKIDSPVLNSSLDEKISASEDDEEEEEKSHRKKTAKKVTPSARNAKVSPLKRVADSSPPSQKRVKTEPKSTPRERATPKASPKPRSTPKASPKPQTPTAARLRTPNAKINFSPSISLRGRPGGKTVINDDLTPQPRSKKTYEFNFELDVSMDANVIVNVKRKKKADQDKATAVDSRTPSSRSALASSSKEEASPVTRVNLRKVNGHGDSSTPGRSPRTPAVTVRKYQG
B4: Smn (protein, UniProt Q9VV74 1-226)
chain: MSDETNAAVWDDSLLVKTYDESVGLAREALARRLADSTNKREEENAAAAEEEAGEISATGGATSPEPVSFKVGDYARATYVDGVDYEGAVVSINEEKGTCVLRYLGYENEQEVLLVDLLPSWGKRVRREQFLIAKKDEDEQLSRPKASAGSHSKTPKSSRRSRISGGLVMPPMPPVPPMIVGQGDGAEQDFVAMLTAWYMSGYYTGLYQGKKEASTTSGKKKTPKK
B5: borr (protein, UniProt Q9VLD6 1-315)
chain: MPRTKIPKNSKRNREVANREEKVRLYELKMDSRLISIDSLETKFLSAVDHQVKTLLGQVQKELANLKMPEVLRLFEELDRFSDFKASDQTQLLASMSMSGSAIEGHAPSATGSRNDEEDSSIGASGGSILAAHTGSLLRSTKAMRTPGPLHSARARRARRSRSACGDLNILHSAKPPSISSSSSSSRNSRSKLRTPMASRAKAFSADRTPLKQKQMRSGSPTTPPMAFLRYPKPGEVALSKYGSPMVAQVMPDKFANVNIPIRNGVLSLRPKKLDADEVESNLLENLDEDTLNQIKTLHENLQMIVNKASQAVFK
B6: mei-S332 (protein, UniProt Q24141 1-401)
chain: MGSKVEQQYKLLNAELMDQVQKQRLEIGEYRKRVISLEREIMDIREEHVLQNHRQRMENISIVRSLMLSLNVDSDSLAVRQEPAPAAQINRPSGPRRSSREICKDMRRTCALARTTRPISPRRSSSVTSTVSSTSRRSSAEVQSEVVTTRIPEDRRANKPTPPPRRPAELVFDEDDSDDDFDEAVSPVEETQTEQNEENNRLFSIIEENGSEGESTDSSSSCEAIYCDTTFESSPPNAQVTVTPSGRALREVDTNIPVAVSLSRGKETGKGSWLAISVAVEDSPQEPSIQCPRLAVTRPSQSSGIFPDVNGLTPRRSLFNGIGKMAGSTSTPKSFLVEEMPSIRTRSRTAANKKSENTDMSSSFCNNSARPSRSCRPTSLVEPSLKNKLRNGSKGKAKAKK
B7: Top2 (protein, UniProt P15348 1-1447)
chain: MENGNKALSIEQMYQKKSQLEHILLRPDSYIGSVEFTKELMWVYDNSQNRMVQKEISFVPGLYKIFDEILVNAADNKQRDKSMNTIKIDIDPERNMVSVWNNGQGIPVTMHKEQKMYVPTMIFGHLLTSSNYNDDEKKVTGGRNGYGAKLCNIFSTSFTVETATREYKKSFKQTWGNNMGKASDVQIKDFNGTDYTRITFSPDLAKFKMDRLDEDIVALMSRRAYDVAASSKGVSVFLNGNKLGVRNFKDYIDLHIKNTDDDSGPPIKIVHEVANERWEVACCPSDRGFQQVSFVNSIATYKGGRHVDHVVDNLIKQLLEVLKKKNKGGINIKPFQVRNHLWVFVNCLIENPTFDSQTKENMTLQQKGFGSKCTLSEKFINNMSKSGIVESVLAWAKFKAQNDIAKTGGRKSSKIKGIPKLEDANEAGGKNSIKCTLILTEGDSAKSLAVSGLGVIGRDLYGVFPLRGKLLNVREANFKQLSENAEINNLCKIIGLQYKKKYLTEDDLKTLRYGKVMIMTDQDQDGSHIKGLLINFIHTNWPELLRLPFLEEFITPIVKATKKNEELSFYSLPEFEEWKNDTANHHTYNIKYYKGLGTSTSKEAKEYFQDMDRHRILFKYDGSVDDESIVMAFSKKHIESRKVWLTNHMDEVKRRKELGLPERYLYTKGTKSITYADFINLELVLFSNADNERSIPSLVDGLKPGQRKVMFTCFKRNDKREVKVAQLSGSVAEMSAYHHGEVSLQMTIVNLAQNFVGANNINLLEPRGQFGTRLSGGKDCASARYIFTIMSPLTRLIYHPLDDPLLDYQVDDGQKIEPLWYLPIIPMVLVNGAEGIGTGWSTKISNYNPREIMKNLRKMINGQEPSVMHPWYKNFLGRMEYVSDGRYIQTGNIQILSGNRLEISELPVGVWTQNYKENVLEPLSNGTEKVKGIISEYREYHTDTTVRFVISFAPGEFERIHAEEGGFYRVFKLTTTLSTNQMHAFDQNNCLRRFPTAIDILKEYYKLRREYYARRRDFLVGQLTAQADRLSDQARFILEKCEKKLVVENKQRKAMCDELLKRGYRPDPVKEWQRRIKMEDAEQADEEDEEEEEAAPSVSSKAKKEKEVDPEKAFKKLTDVKKFDYLLGMSMWMLTEEKKNELLKQRDTKLSELESLRKKTPEMLWLDDLDALESKLNEVEEKERAEEQGINLKTAKALKGQKSASAKGRKVKSMGGGAGAGDVFPDPDGEPVEFKITEEIIKKMAAAAKVAQAAKEPKKPKEPKEPKVKKEPKGKQIKAEPDASGDEVDEFDAMVEGGSKTSPKAKKAVVKKEPGEKKPRQKKENGGGLKQSKIDFSKAKAKKSDDDVEEVTPRAERPGRRQASKKIDYSSLFSDEEEDGGNVGSDDDGNASDDDSPKRPAKRGREDESSGGAKKKAPPKKRRAVIESDDDDIEIDEDDDDDSDFNC

biological target: GFP-Prod (D. melanogaster) (UniProt A1ZBF8); test: affinity purification with mass spectrometry

binding, binds:
B1

biological target: T1, GFP-D1 (D. melanogaster); test: affinity purification with mass spectrometry

binding, binds:
ADD1 (D. melanogaster (endogenous in embryos)), HP5 (D. melanogaster (endogenous in embryos)), Hybrid male rescue (Hmr) (D. melanogaster (endogenous in embryos)), Incenp (D. melanogaster (endogenous in embryos)), Lethal hybrid rescue (Lhr) (D. melanogaster (endogenous in embryos)), Parp (D. melanogaster (endogenous in embryos)), RfC38 (from UniProt Q9U9Q1), Su(var)3-9 (from UniProt P45975 1-635), small ovary (Sov) (from UniProt Q9W3W6), B2, B3, B4, B5, B6, B7

These are yes or no findings as the source states them, for the method shown. In cells and extracts the contact can be indirect. A yes stands for co-enrichment or nearness to the bait. Other partners may have been found. For some of these results: Sequences can lack the tags named with a protein.
